Test [1] has as its target glutathione-S-transferase (GST)-GRP78, full-length mouse GRP78 (mouse), P20029. Description: pull-down; GST fusion protein (20 µg) incubated with 500 µL DC2.4 cell membrane protein lysates (1 × 10^6 cells) for 1 h on ice, then glutathione agarose beads overnight at 4°C; immunoblot; only the target purified. Conditions: remark: other sources report otherwise.
Test [2] addresses glutathione-S-transferase (GST)-GRP78, full-length mouse GRP78 (mouse) (UniProt P20029). Described as above.

The chains behind the UniProt entries cited, without tags or fusion partners. Where a name states a change or a piece, a line headed by the entry shows the natural chain unless it says otherwise.
UniProt P20029: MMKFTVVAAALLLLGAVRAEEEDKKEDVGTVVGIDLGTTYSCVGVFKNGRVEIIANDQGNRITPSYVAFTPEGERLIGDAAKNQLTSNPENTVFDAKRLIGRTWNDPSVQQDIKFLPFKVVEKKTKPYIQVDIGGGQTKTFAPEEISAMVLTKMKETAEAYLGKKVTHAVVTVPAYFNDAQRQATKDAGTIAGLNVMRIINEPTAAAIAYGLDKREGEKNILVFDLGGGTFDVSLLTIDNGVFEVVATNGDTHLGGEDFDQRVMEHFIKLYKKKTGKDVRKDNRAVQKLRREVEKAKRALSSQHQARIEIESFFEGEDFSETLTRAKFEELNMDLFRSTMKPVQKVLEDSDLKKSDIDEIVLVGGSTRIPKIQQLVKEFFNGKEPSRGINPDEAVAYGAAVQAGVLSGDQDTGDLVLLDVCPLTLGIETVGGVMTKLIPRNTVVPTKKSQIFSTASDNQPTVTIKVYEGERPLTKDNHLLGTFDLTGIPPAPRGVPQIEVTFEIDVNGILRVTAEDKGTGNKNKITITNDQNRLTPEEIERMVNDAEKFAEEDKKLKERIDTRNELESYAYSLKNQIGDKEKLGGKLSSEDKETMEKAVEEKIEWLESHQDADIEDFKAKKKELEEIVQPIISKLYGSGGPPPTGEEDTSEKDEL

In paper PMC5440525 one finds binding data, which are given here for 2 molecules.

These are yes or no findings as the source states them, for the method shown. In cells and extracts the contact can be indirect. For some assays here: A result given as binding can be weak or reduced; the word gives no strength.

B1: toll-like receptor (TLR) 4 (in membrane protein lysates of DC2.4 cells), Q9QUK6 26-835 (receptor)
chain: NPCIEVVPNITYQCMDQKLSKVPDDIPSSTKNIDLSFNPLKILKSYSFSNFSELQWLDLSRCEIETIEDKAWHGLHHLSNLILTGNPIQSFSPGSFSGLTSLENLVAVETKLASLESFPIGQLITLKKLNVAHNFIHSCKLPAYFSNLTNLVHVDLSYNYIQTITVNDLQFLRENPQVNLSLDMSLNPIDFIQDQAFQGIKLHELTLRGNFNSSNIMKTCLQNLAGLHVHRLILGEFKDERNLEIFEPSIMEGLCDVTIDEFRLTYTNDFSDDIVKFHCLANVSAMSLAGVSIKYLEDVPKHFKWQSLSIIRCQLKQFPTLDLPFLKSLTLTMNKGSISFKKVALPSLSYLDLSRNALSFSGCCSYSDLGTNSLRHLDLSFNGAIIMSANFMGLEELQHLDFQHSTLKRVTEFSAFLSLEKLLYLDISYTNTKIDFDGIFLGLTSLNTLKMAGNSFKDNTLSNVFANTTNLTFLDLSKCQLEQISWGVFDTLHRLQLLNMSHNNLLFLDSSHYNQLYSLSTLDCSFNRIETSKGILQHFPKSLAFFNLTNNSVACICEHQKFLQWVKEQKQFLVNVEQMTCATPVEMNTSLVLDFNNSTCYMYKTIISVSVVSVIVVSTVAFLIYHFYFHLILIAGCKKYSRGESIYDAFVIYSSQNEDWVRNELVKNLEEGVPRFHLCLHYRDFIPGVAIAANIIQEGFHKSRKVIVVVSRHFIQSRWCIFEYEIAQTWQFLSSRSGIIFIVLEKVEKSLLRQQVELYRLLSRNTYLEWEDNPLGRHIFWRRLKNALLDGKASNPEQTAEEEQETATWT
For B1, the binding entry in test [1] is on record as “no binding (tested: 20 µg GST fusion protein)”.

B2: CD14 (in membrane protein lysates of DC2.4 cells) (receptor, UniProt P10810 16-336)
chain: SPAPPEPCELDEESCSCNFSDPKPDWSSAFNCLGAADVELYGGGRSLEYLLKRVDTEADLGQFTDIIKSLSLKRLTVRAARIPSRILFGALRVLGISGLQELTLENLEVTGTAPPPLLEATGPDLNILNLRNVSWATRDAWLAELQQWLKPGLKVLSIAQAHSLNFSCEQVRVFPALSTLDLSDNPELGERGLISALCPLKFPTLQVLALRNAGMETPSGVCSALAAARVQLQGLDLSHNSLRDAAGAPSCDWPSQLNSLNLSFTGLKQVPKGLPAKLSVLDLSYNRLDRNPSPDELPQVGNLSLKGNPFLDSESHSEKFN
For the molecule B2, in test [2], the binding entry is reported as “binds”.
